Data as given in PubChem BioAssay AID652243 (Drosophila RNAi Screening Center, 2013).
Aim: 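Knock-downs that decrease or increase androgen receptor reporter signal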 (primary screen). System: Drosophila S2R+ cells. Knock-down reagent: long dsRNA against Drosophila genes. Duration: 72 h (48 h, then 24 h hormone). Conditions: synthetic androgen R1881 at 10 nM for 24 h. Measurement: 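Firefly light from an androgen-responsive reporter and Renilla control light per well, raw and unnormalised, for each of two replicates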. Scale: firefly reporter light: higher = more light from androgen-responsive reporter; Renilla control light: higher = more constitutive control signal (cell number, transfection). Hit rule: 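Hit when the log firefly-to-Renilla ratio dropped or increased by a fixed fold versus the mean of GFP or LacZ controls across duplicate plates; lowering cut given as 1.5 and as 3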. Meaning of the calls: active = hit: reporter lowered or raised; inactive = no hit.
In all, the deposit lists about 24,000 reagents; this is an unselected part of those that have a named target and a result. Of all reagents, 246 (1%) got an active call. 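Plates not normalised; calls are printed but the firefly/Renilla ratio behind them is not deposited; fold cut for lowering reported inconsistently.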 The raw values are shown without normalisation. Not stated in the record: the amount of reagent.

CG7798 [DRSC07047] → firefly reporter light, replicate 1 = 75226; firefly reporter light, replicate 2 = 72853; Renilla control light, replicate 1 = 8.67e5; Renilla control light, replicate 2 = 8.67e5; activity call = inactive
CG31548 [DRSC22640] → firefly reporter light, replicate 1 = 1.03e6; firefly reporter light, replicate 2 = 1.08e6; Renilla control light, replicate 1 = 1.39e6; Renilla control light, replicate 2 = 1.01e6; activity call = inactive
CG31548 [DRSC25763] → firefly reporter light, replicate 1 = 5.35e5; firefly reporter light, replicate 2 = 5.53e5; Renilla control light, replicate 1 = 4.98e5; Renilla control light, replicate 2 = 5.42e5; activity call = inactive
CG10543 [DRSC23102] → firefly reporter light, replicate 1 = 3.93e5; firefly reporter light, replicate 2 = 3.03e5; Renilla control light, replicate 1 = 1.65e6; Renilla control light, replicate 2 = 1.33e6; activity call = inactive
CG17059 [DRSC06654] → firefly reporter light, replicate 1 = 4.57e5; firefly reporter light, replicate 2 = 2.78e5; Renilla control light, replicate 1 = 2.54e6; Renilla control light, replicate 2 = 2.33e6; activity call = inactive
CG33483 [DRSC14019] → firefly reporter light, replicate 1 = 1.38e6; firefly reporter light, replicate 2 = 7.44e5; Renilla control light, replicate 1 = 3.32e6; Renilla control light, replicate 2 = 1.81e6; activity call = inactive
Cbs [DRSC20553] → firefly reporter light, replicate 1 = 46807; firefly reporter light, replicate 2 = 40006; Renilla control light, replicate 1 = 3.74e5; Renilla control light, replicate 2 = 3.50e5; activity call = inactive
Edem2 [DRSC02877] → firefly reporter light, replicate 1 = 2.94e5; firefly reporter light, replicate 2 = 3.10e5; Renilla control light, replicate 1 = 2.40e6; Renilla control light, replicate 2 = 2.11e6; activity call = inactive
Edem2 [DRSC26898] → firefly reporter light, replicate 1 = 4.29e5; firefly reporter light, replicate 2 = 2.78e5; Renilla control light, replicate 1 = 5.77e5; Renilla control light, replicate 2 = 3.51e5; activity call = inactive
CG31076 [DRSC16017] → firefly reporter light, replicate 1 = 1.29e5; firefly reporter light, replicate 2 = 2.08e5; Renilla control light, replicate 1 = 1.49e6; Renilla control light, replicate 2 = 2.89e6; activity call = inactive
CG41518 (retired record) [DRSC38578] → firefly reporter light, replicate 1 = 1.03e6; firefly reporter light, replicate 2 = 8.81e5; Renilla control light, replicate 1 = 6.88e5; Renilla control light, replicate 2 = 5.16e5; activity call = inactive
CG14062 [DRSC14725] → firefly reporter light, replicate 1 = 1.78e5; firefly reporter light, replicate 2 = 1.18e5; Renilla control light, replicate 1 = 1.98e6; Renilla control light, replicate 2 = 2.34e6; activity call = inactive
CG14062 [DRSC27180] → firefly reporter light, replicate 1 = 2.70e5; firefly reporter light, replicate 2 = 3.03e5; Renilla control light, replicate 1 = 6.77e5; Renilla control light, replicate 2 = 7.35e5; activity call = inactive
Cda4 [DRSC20623] → firefly reporter light, replicate 1 = 2.14e5; firefly reporter light, replicate 2 = 1.95e5; Renilla control light, replicate 1 = 7.45e5; Renilla control light, replicate 2 = 5.14e5; activity call = inactive
Cda4 [DRSC20641] → firefly reporter light, replicate 1 = 80903; firefly reporter light, replicate 2 = 79337; Renilla control light, replicate 1 = 1.92e5; Renilla control light, replicate 2 = 1.93e5; activity call = inactive
Cda4 [DRSC20642] → firefly reporter light, replicate 1 = 2.12e5; firefly reporter light, replicate 2 = 1.63e5; Renilla control light, replicate 1 = 7.79e5; Renilla control light, replicate 2 = 5.91e5; activity call = inactive
